# Source: the supplement of paper PMC8728848
# This is one part of the list.
# B1: Langerin K299A/K313A (Homo sapiens), Q9UJ71 (protein)
# chain: STLNAQIPELKSDLEKASALNTKIRALQGSLENMSKLLKRQNDILQVVSQGWKYFKGNFYYFSLIPKTWYSAEQFCVSRNSHLTSVTSESEQEFLYKTAGGLIYWIGLTKAGMEGDWSWVDDTPFNKVQSARFWIPGEPNNAGNNEHCGNIAAPSLQAWNDAPCDATFLFICKRPYVPSEP
# What was measured:
# Test in all cases: glycan array binding signal (z-score within array); higher = stronger binding
# Settings in all cases: glycan notation: IUPAC condensed, linker removed
# [1] = molecular target: Neu5Ac(a2-3)Gal(b1-3)GalNAc
# In short: (§1)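 Columns mapping to the same glycan were averaged after glycan names were converted to IUPAC-condensed notation. The data come from 3228 arrays in the Consortium for Functional Glycomics database, limited to those with an available protein sequence. Binding is reported as a within-array Z-score averaged across arrays of one protein sequence and across linkers.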
# [2] = molecular target: Neu5Ac(a2-3)Gal(b1-3)GalNAc(b1-3)Gal(a1-4)Gal(b1-4)Glc
# In short: as §1
# [3] = molecular target: Neu5Ac(a2-3)Gal(b1-3)GalNAc(b1-4)[Neu5Ac(a2-3)]Gal(b1-4)Glc
# In short: as §1
# [4] = molecular target: Neu5Ac(a2-3)Gal(b1-3)GalNAc(b1-4)[Neu5Ac(a2-8)Neu5Ac(a2-3)]Gal(b1-4)Glc
# In short: as §1
# [5] = molecular target: Neu5Ac(a2-3)Gal(b1-3)GalNAc6S
# In short: as §1
# [6] = molecular target: Neu5Ac(a2-3)Gal(b1-3)GlcNAc
# In short: as §1
# [7] = molecular target: Neu5Ac(a2-3)Gal(b1-3)GlcNAc(b1-2)Man
# In short: as §1
# [8] = molecular target: Neu5Ac(a2-3)Gal(b1-3)GlcNAc(b1-2)Man(a1-3)[GlcNAc(b1-4)][Neu5Ac(a2-3)Gal(b1-3)GlcNAc(b1-2)Man(a1-6)]Man(b1-4)GlcNAc(b1-4)GlcNAc
# In short: as §1
# [9] = molecular target: Neu5Ac(a2-3)Gal(b1-3)GlcNAc(b1-2)Man(a1-3)[Neu5Ac(a2-3)Gal(b1-3)GlcNAc(b1-2)Man(a1-6)]Man(b1-4)GlcNAc(b1-4)GlcNAc
# In short: as §1
# [10] = molecular target: Neu5Ac(a2-3)Gal(b1-3)GlcNAc(b1-3)Gal(b1-3)GlcNAc
# In short: as §1
# [11] = molecular target: Neu5Ac(a2-3)Gal(b1-3)GlcNAc(b1-3)Gal(b1-4)GlcNAc
# In short: as §1
# [12] = molecular target: Neu5Ac(a2-3)Gal(b1-3)GlcNAc(b1-3)GalNAc
# In short: as §1
# [13] = molecular target: Neu5Ac(a2-3)Gal(b1-3)GlcNAc(b1-4)Gal(b1-4)Glc
# In short: as §1
# [14] = molecular target: Neu5Ac(a2-3)Gal(b1-3)GlcNAc(b1-6)GalNAc
# In short: as §1
# [15] = molecular target: Neu5Ac(a2-3)Gal(b1-3)GlcNAc6S
# In short: as §1
# [16] = molecular target: Neu5Ac(a2-3)Gal(b1-3)[Fuc(a1-4)]GlcNAc
# In short: as §1
# [17] = molecular target: Neu5Ac(a2-3)Gal(b1-3)[Fuc(a1-4)]GlcNAc(b1-3)Gal(b1-3)[Fuc(a1-4)]GlcNAc
# In short: as §1
# [18] = molecular target: Neu5Ac(a2-3)Gal(b1-3)[Fuc(a1-4)]GlcNAc(b1-3)Gal(b1-4)[Fuc(a1-3)]GlcNAc
# In short: as §1
# [19] = molecular target: Neu5Ac(a2-3)Gal(b1-3)[GlcNAc(b1-6)]GalNAc
# In short: as §1
# [20] = molecular target: Neu5Ac(a2-3)Gal(b1-3)[Neu5Ac(a2-6)]GalNAc
# In short: as §1
# [21] = molecular target: Neu5Ac(a2-3)Gal(b1-3)[Neu5Ac(a2-6)]GlcNAc(b1-3)[Fuc(a1-3)[Gal(b1-4)]GlcNAc(b1-6)]Gal(b1-4)Glc
# In short: as §1
# [22] = molecular target: Neu5Ac(a2-3)Gal(b1-3)]Neu5Ac(a2-3)Gal(b1-4)]GlcNAc
# In short: as §1
# Neu5Ac(a2-3)Gal(b1-4)Glc = molecular target: Neu5Ac(a2-3)Gal(b1-4)Glc
# In short: as §1
# [23] = molecular target: Neu5Ac(a2-3)Gal(b1-4)GlcNAc
# In short: as §1
# [24] = molecular target: Neu5Ac(a2-3)Gal(b1-4)GlcNAc(b1-2)Man
# In short: as §1
# [25] = molecular target: Neu5Ac(a2-3)Gal(b1-4)GlcNAc(b1-2)Man(a1-3)[GlcNAc(b1-4)][Neu5Ac(a2-3)Gal(b1-4)GlcNAc(b1-2)Man(a1-6)]Man(b1-4)GlcNAc(b1-4)GlcNAc
# In short: as §1
# [26] = molecular target: Neu5Ac(a2-3)Gal(b1-4)GlcNAc(b1-2)Man(a1-3)[Neu5Ac(a2-3)Gal(b1-4)GlcNAc(b1-2)Man(a1-6)]Man(b1-4)GlcNAc(b1-4)GlcNAc
# In short: as §1
# [27] = molecular target: Neu5Ac(a2-3)Gal(b1-4)GlcNAc(b1-2)Man(a1-3)[Neu5Ac(a2-3)Gal(b1-4)GlcNAc(b1-2)Man(a1-6)]Man(b1-4)GlcNAc(b1-4)[Fuc(a1-6)]GlcNAc
# In short: as §1
# [28] = molecular target: Neu5Ac(a2-3)Gal(b1-4)GlcNAc(b1-2)Man(a1-3)[Neu5Ac(a2-6)Gal(b1-4)GlcNAc(b1-2)Man(a1-6)]Man(b1-4)GlcNAc(b1-4)GlcNAc
# In short: as §1
# [29] = molecular target: Neu5Ac(a2-3)Gal(b1-4)GlcNAc(b1-2)[Neu5Ac(a2-3)Gal(b1-4)GlcNAc(b1-4)]Man(a1-3)[GlcNAc(b1-4)][Neu5Ac(a2-3)Gal(b1-4)GlcNAc(b1-2)[Neu5Ac(a2-3)Gal(b1-4)GlcNAc(b1-6)]Man(a1-6)]Man(b1-4)GlcNAc(b1-4)GlcNAc
# In short: as §1
# [30] = molecular target: Neu5Ac(a2-3)Gal(b1-4)GlcNAc(b1-2)[Neu5Ac(a2-3)Gal(b1-4)GlcNAc(b1-4)]Man(a1-3)[GlcNAc(b1-4)][Neu5Ac(a2-3)Gal(b1-4)GlcNAc(b1-4)Man(a1-6)]Man(b1-4)GlcNAc(b1-4)GlcNAc
# In short: as §1
# [31] = molecular target: Neu5Ac(a2-3)Gal(b1-4)GlcNAc(b1-2)[Neu5Ac(a2-3)Gal(b1-4)GlcNAc(b1-6)]Man(a1-6)[Neu5Ac(a2-3)Gal(b1-4)GlcNAc(b1-2)Man(a1-3)]Man(b1-4)GlcNAc(b1-4)GlcNAc
# In short: as §1
# [32] = molecular target: Neu5Ac(a2-3)Gal(b1-4)GlcNAc(b1-2)[Neu5Ac(a2-3)Gal(b1-4)GlcNAc(b1-6)]Man(a1-6)[Neu5Ac(a2-3)Gal(b1-4)GlcNAc(b1-2)Man(a1-3)][GlcNAc(b1-4)]Man(b1-4)GlcNAc(b1-4)GlcNAc
# In short: as §1
# [33] = molecular target: Neu5Ac(a2-3)Gal(b1-4)GlcNAc(b1-3)Gal
# In short: as §1
# [34] = molecular target: Neu5Ac(a2-3)Gal(b1-4)GlcNAc(b1-3)Gal(b1-3)GlcNAc
# In short: as §1
# [35] = molecular target: Neu5Ac(a2-3)Gal(b1-4)GlcNAc(b1-3)Gal(b1-4)GlcNAc
# In short: as §1
# [36] = molecular target: Neu5Ac(a2-3)Gal(b1-4)GlcNAc(b1-3)Gal(b1-4)GlcNAc(b1-2)Man(a1-3)[Neu5Ac(a2-3)Gal(b1-4)GlcNAc(b1-3)Gal(b1-4)GlcNAc(b1-2)Man(a1-6)]Man(b1-4)GlcNAc(b1-4)GlcNAc
# In short: as §1
# [37] = molecular target: Neu5Ac(a2-3)Gal(b1-4)GlcNAc(b1-3)Gal(b1-4)GlcNAc(b1-3)Gal(b1-4)GlcNAc
# In short: as §1
# [38] = molecular target: Neu5Ac(a2-3)Gal(b1-4)GlcNAc(b1-3)Gal(b1-4)GlcNAc(b1-3)Gal(b1-4)GlcNAc(b1-2)Man(a1-3)[Neu5Ac(a2-3)Gal(b1-4)GlcNAc(b1-3)Gal(b1-4)GlcNAc(b1-3)Gal(b1-4)GlcNAc(b1-2)Man(a1-6)]GalNAc
# In short: as §1
# [39] = molecular target: Neu5Ac(a2-3)Gal(b1-4)GlcNAc(b1-3)Gal(b1-4)GlcNAc(b1-3)GalNAc
# In short: as §1
# [40] = molecular target: Neu5Ac(a2-3)Gal(b1-4)GlcNAc(b1-3)Gal(b1-4)GlcNAc(b1-3)[Neu5Ac(a2-3)Gal(b1-4)GlcNAc(b1-3)Gal(b1-4)GlcNAc(b1-6)]GalNAc
# In short: as §1
# [41] = molecular target: Neu5Ac(a2-3)Gal(b1-4)GlcNAc(b1-3)Gal(b1-4)GlcNAc(b1-6)[Gal(b1-3)]GalNAc
# In short: as §1
# [42] = molecular target: Neu5Ac(a2-3)Gal(b1-4)GlcNAc(b1-3)Gal(b1-4)[Fuc(a1-3)]GlcNAc
# In short: as §1
# [43] = molecular target: Neu5Ac(a2-3)Gal(b1-4)GlcNAc(b1-3)GalNAc
# In short: as §1
# [44] = molecular target: Neu5Ac(a2-3)Gal(b1-4)GlcNAc(b1-3)[Neu5Ac(a2-3)Gal(b1-4)GlcNAc(b1-6)]GalNAc
# In short: as §1
binder,measurement,setting,value
B1,glycan array binding signal (z-score),[1],-0.174
same,glycan array binding signal (z-score),[2],-0.646
same,glycan array binding signal (z-score),[3],-0.356
same,glycan array binding signal (z-score),[4],0.052
same,glycan array binding signal (z-score),[5],-0.289
same,glycan array binding signal (z-score),[6],-0.504
same,glycan array binding signal (z-score),[7],1.93
same,glycan array binding signal (z-score),[8],-0.553
same,glycan array binding signal (z-score),[9],0.863
same,glycan array binding signal (z-score),[10],-0.682
same,glycan array binding signal (z-score),[11],-0.666
same,glycan array binding signal (z-score),[12],-0.354
same,glycan array binding signal (z-score),[13],0.213
same,glycan array binding signal (z-score),[14],-0.402
same,glycan array binding signal (z-score),[15],-0.784
same,glycan array binding signal (z-score),[16],-0.583
same,glycan array binding signal (z-score),[17],1.71
same,glycan array binding signal (z-score),[18],0.913
same,glycan array binding signal (z-score),[19],-0.068
same,glycan array binding signal (z-score),[20],0.974
same,glycan array binding signal (z-score),[21],-0.995
same,glycan array binding signal (z-score),[22],-0.288
same,glycan array binding signal (z-score),Neu5Ac(a2-3)Gal(b1-4)Glc,-0.259
same,glycan array binding signal (z-score),[23],-0.74
same,glycan array binding signal (z-score),[24],0.939
same,glycan array binding signal (z-score),[25],-0.575
same,glycan array binding signal (z-score),[26],-0.447
same,glycan array binding signal (z-score),[27],2.18
same,glycan array binding signal (z-score),[28],-0.607
same,glycan array binding signal (z-score),[29],-0.935
same,glycan array binding signal (z-score),[30],0.006
same,glycan array binding signal (z-score),[31],-0.473
same,glycan array binding signal (z-score),[32],-0.681
same,glycan array binding signal (z-score),[33],-1.37
same,glycan array binding signal (z-score),[34],-0.722
same,glycan array binding signal (z-score),[35],-1.35
same,glycan array binding signal (z-score),[36],0.24
same,glycan array binding signal (z-score),[37],0.361
same,glycan array binding signal (z-score),[38],0.673
same,glycan array binding signal (z-score),[39],-0.893
same,glycan array binding signal (z-score),[40],0.403
same,glycan array binding signal (z-score),[41],0.103
same,glycan array binding signal (z-score),[42],0.253
same,glycan array binding signal (z-score),[43],-0.07
same,glycan array binding signal (z-score),[44],-0.002

# Part of the list above, tab-delimited.
binder	measurement	setting	value
B1	glycan array binding signal (z-score)	[12]	-0.354
same	glycan array binding signal (z-score)	[13]	0.213
